“And” between values parts separate entries of the source, which are not always exact repeats. Equal values may be shown once.

The record followed here is patent US20090176995A1, “Soluble fullerene derivatives” (NATIONAL UNIVERSITY CORPORATION NAGOYA INSTITUTE OF …, priority 2007, published 2009).

The nature of data set [1]: organic thin-film solar battery cell, fullerene derivative as acceptor with P3HT as donor.
Data set [2] can be described thus: organic thin-film solar battery cell, fullerene derivative as acceptor with MEH-PPV as donor. Conditions: 2 mg MEH-PPV + 8 mg acceptor in 0.5 mL o-DCB, 2000 rpm, film heated at 100° C. for 10 minutes.
Setting [3] is: P3HT 15 mg + acceptor 15 mg in 1.0 ml o-dichlorobenzene, spin coating 2000 rpm, film heated at 100° C. for 30 minutes.
[4] abbreviates: P3HT, o-dichlorobenzene, 2000 rpm, film heated at 100° C. for 30 minutes.
The mark [5] stands for this setting: P3HT, o-dichlorobenzene, 2000 rpm, film heated at 150° C. for 10 hours.
Where [6] appears, read: P3HT, o-dichlorobenzene, 2000 rpm, film heated at 150° C. for 5 hours.
Setting [7] is: P3HT, o-dichlorobenzene, 2000 rpm, film heated at 150° C. for 24 hours.
[8] abbreviates: P3HT, film heated at 150° C. for 30 minutes, electrodes by vapor deposition, heat treatment at 140° C. for 10 minutes.
Setting [9] is: P3HT, o-dichlorobenzene, 2000 rpm, film heated at 150° C. for 30 minutes.

On to 1,1′-Bis(4-hexyloxycarbonylphenyl)-C61, for which the Eff in data set [1] (setting [3]) turned out to be 1.31%. Moreover, in data set [1] (setting [4]), the FF is recorded as 0.58, the Isc was determined as 3.91 mA/cm^2 and the Voc is 0.57 V.
Take “1,1′-bis(4-tert-butoxycarbonylphenyl)-C61”: the Eff in data set [1] (setting [3]) is 0.75%. In data set [1] (setting [4]), this compound displayed an FF of 0.49, an Isc of 2.97 mA/cm^2 and a Voc of 0.51 V.
Regarding “1-(3,4-Dioctyloxyphenyl)-1-(1-phenoxybutyl)-C61”, in data set [1] (setting [3]), the Eff turned out to be 0.094%. In data set [1] (setting [4]), this compound yielded an FF of 0.37, an Isc of 0.95 mA/cm^2 and a Voc of 0.27 V.
Turning to “1-(3,4-Dioctyloxyphenyl)-1-(4-nitrophenyl)-C61”, in data set [1] (setting [3]), the Eff is given as 0.16%. Also, in data set [1] (setting [4]), the FF amounted to 0.37, the Isc is on record as 2.28 mA/cm^2 and the Voc was determined as 0.19 V.
Turning to “1-(3,4-Dioctyloxyphenyl)-1-(4-trifluoromethylsulfonylphenyl)-C61”, the Eff in data set [1] (setting [3]) stood at 0.86%. Also, in data set [1] (setting [4]), the FF stood at 0.43, the Isc came out at 4.20 mA/cm^2 and the Voc is given as 0.48 V.
In data set [1] (setting [5]), “1-(3,4-Dioctyloxyphenyl)-1-[4-(2,3,4,5,6-pentafluorophenoxy)butyl]C61” had an Eff of 0.028%, an FF of 0.38, an Isc of 0.46 mA/cm^2 and a Voc of 0.16 V.
For “1-(3,4-Dioctyloxyphenyl)-1-[4-(4-iodophenoxy)butyl]C61”, the Eff in data set [1] (setting [3]) was 0.15%. In data set [1] (setting [4]), this compound showed an FF of 0.32, an Isc of 1.87 mA/cm^2 and a Voc of 0.26 V. For the same compound, in data set [1] (setting [6]), the Eff is 0.25%, the FF amounted to 0.38, the Isc was 2.68 mA/cm^2 and the Voc turned out to be 0.25 V.
Turning to “1-(4-Methylsulfonylphenyl)-1-(3,4-dioctyloxyphenyl)-C61”, in data set [1] (setting [3]), the Eff was found to be 1.24%. Also, in data set [1] (setting [4]), the FF is reported as 0.50, the Isc is on record as 4.43 mA/cm^2 and the Voc stood at 0.56 V.
In data set [1] (setting [7]), “1-(Benzo[b]thiophen-2-yl)-1-[4-(2,3,4,5,6-pentafluorophenoxy)butyl]C61” returned an Eff of 0.025%, an FF of 0.31, an Isc of 0.25 mA/cm^2 and a Voc of 0.33 V.
Regarding “3,5-Didecyloxybenzyl 4-(1-phenyl-C61)butyrate”, in data set [1] (setting [3]), the Eff was determined as 0.16%. In addition, in data set [1] (setting [4]), the FF was found to be 0.37, the Isc stood at 2.28 mA/cm^2 and the Voc was 0.19 V.
As to “4-{4-[(3,4-Dioctyloxyphenyl)-C61]butoxy}benzene-1,2-dicarbonitrile”, the Eff in data set [1] (setting [3]) is reported as 0.17%. In data set [1] (setting [4]), this compound displayed an FF of 0.40, an Isc of 1.31 mA/cm^2 and a Voc of 0.33 V. In data set [1] (setting [6]), this compound registered an Eff of 0.24%, an FF of 0.39, an Isc of 1.74 mA/cm^2 and a Voc of 0.35 V.
In data set [1] (setting [4]), `CCCCCCCCOc1ccc(C2(c3ccc(C#N)cc3)C34c5c6c7c8c9c%10c(c%11c%12c3c3c%13c5c5c%14c6c6c8c8c9c9c%15c%10c%11c%10c%11c%12c3c3c%12c%13c5c5c%13c%14c6c6c8c8c9c9c%15c%10c%10c%11c3c3c%12c5c5c%13c6c8c6c9c%10c3c56)C724)cc1OCCCCCCCC` (stereo not shown) [1-(4-cyanophenyl)-1-(3,4-dioctyloxyphenyl)-C61] yielded an FF of 0.40, an Isc of 4.09 mA/cm^2 and a Voc of 0.52 V.
With “Dimethyl 1-(3,4-dioctyloxyphenyl)-C61-benzene-1,3-dioate”, the Eff in data set [1] (setting [3]) amounted to 1.00%. In data set [1] (setting [4]), this compound had an FF of 0.59, an Isc of 3.13 mA/cm^2 and a Voc of 0.54 V.
Regarding “Methyl 1-(3,4,5-Trioctyloxyphenyl)-C61-4-benzoate”, the Eff in data set [1] (setting [3]) was determined as 1.50%. In data set [1] (setting [4]), this compound came in with an FF of 0.49, an Isc of 4.60 mA/cm^2 and a Voc of 0.66 V.
Consider “Methyl 1-(3,4,5-trioctyloxyphenyl)-C71-4-benzoate”, for which, in data set [2], the Eff is recorded as 0.76%, the FF is given as 0.32, the Isc was found to be 2.84 mA/cm^2 and the Voc is on record as 0.82 V. The Eff in data set [1] (setting [3]) turned out to be 1.60%. In data set [1] (setting [4]), this compound yielded an FF of 0.55, an Isc of 4.90 mA/cm^2 and a Voc of 0.60 V.
Consider “Methyl 1-(4-Octyloxyphenyl)-C61-4-benzoate”, for which the Eff in data set [1] (setting [3]) is 1.05% and 0.022%. Also, in data set [1] (setting [4]), the Voc was 0.60 V and 0.49 V.
In data set [1] (setting [8]), “Methyl 4-[1-(3,4-dioctyloxyphenyl)-C61]benzoate” gave an Eff of 2.12%, an FF of 0.63, an Isc of 5.18 mA/cm^2 and a Voc of 0.65 V. Further, in data set [1] (setting [9]), the Eff amounted to 1.47%, the FF is given as 0.53, the Isc is listed as 4.93 mA/cm^2 and the Voc is given as 0.56 V.
Turning to “Perfluorooctylethyl Phenyl C61-4-benzoate”, in data set [1] (setting [3]), the Eff amounted to 0.36%. In data set [1] (setting [4]), this compound had an FF of 0.38, an Isc of 2.03 mA/cm^2 and a Voc of 0.46 V.
